# From article PMC10920476
# Positions count from the first letter of the chain named. In names and notes the source's numbering stands. No constants are given. Whether binding was seen depends on the method and setting. Binding seen in cells or lysates may run through a third protein. Some entries that bind do so weakly or less than the wild type.
# B1: signal transducer and activator of transcription 6 (STAT6), wild type, P42226-1 1-847 (protein)
# chain: MSLWGLVSKMPPEKVQRLYVDFPQHLRHLLGDWLESQPWEFLVGSDAFCCNLASALLSDTVQHLQASVGEQGEGSTILQHISTLESIYQRDPLKLVATFRQILQGEKKAVMEQFRHLPMPFHWKQEELKFKTGLRRLQHRVGEIHLLREALQKGAEAGQVSLHSLIETPANGTGPSEALAMLLQETTGELEAAKALVLKRIQIWKRQQQLAGNGAPFEESLAPLQERCESLVDIYSQLQQEVGAAGGELEPKTRASLTGRLDEVLRTLVTSCFLVEKQPPQVLKTQTKFQAGVRFLLGLRFLGAPAKPPLVRADMVTEKQARELSVPQGPGAGAESTGEIINNTVPLENSIPGNCCSALFKNLLLKKIKRCERKGTESVTEEKCAVLFSASFTLGPGKLPIQLQALSLPLVVIVHGNQDNNAKATILWDNAFSEMDRVPFVVAERVPWEKMCETLNLKFMAEVGTNRGLLPEHFLFLAQKIFNDNSLSMEAFQHRSVSWSQFNKEILLGRGFTFWQWFDGVLDLTKRCLRSYWSDRLIIGFISKQYVTSLLLNEPDGTFLLRFSDSEIGGITIAHVIRGQDGSPQIENIQPFSAKDLSIRSLGDRIRDLAQLKNLYPKKPKDEAFRSHYKPEQMGKDGRGYVPATIKMTVERDQPLPTPELQMPTMVPSYDLGMAPDSSMSMQLGPDMVPQVYPPHSHSIPPYQGLSPEESVNVLSAFQEPHLQMPPSLGQMSLPFDQPHPQGLLPCQPQEHAVSSPDPLLCSDVTMVEDSCLSQPVTAFPQGTWIGEDIFPPLLPPTEQDLTKLLLEGQGESGGGSLGAQPLLQPSHYGQSGISMSHMDLRANPSW
# B2: signal transducer and activator of transcription 6 (STAT6) D419N (protein, UniProt P42226-1 1-847)
# chain: B1 chain with D419N
# Legend:
# Assay in all cases: co-IP; HEK293ft cells co-transfected with Flag- and V5-tagged STAT6 (WT or D419N), with or without IL-4 for 1 h; nuclear extracts (Nuclear Complex Co-IP Kit), 250 ug per condition; Flag IP with M2 beads probed for V5, and the reciprocal V5 IP with V5 antibody and magnetic dynabeads; overnight at …; western blot
# [1] = target: T1, signal transducer and activator of transcription 6 (STAT6), wild type (human), P42226; conditions: remark: other sources report otherwise
# T1 chain: B1 chain
# [2] = target: signal transducer and activator of transcription 6 (STAT6) D419N (human) (UniProt P42226)
# [3] = target: T2, signal transducer and activator of transcription 6 (STAT6), wild type (human) (UniProt P42226)
# T2 sequence: B1 chain
Binder,binding [1],binding [2],binding [3]
B1,binds,,
B2,,binds,binds
